The record followed here is PMC6237751.

These are yes or no findings as the source states them, for the method shown. Binding seen in cells or lysates may run through a third protein. Some entries that bind do so weakly or less than the wild type.

In assay [1] the target is T1, AATF (human (endogenous in U-2 OS)) (UniProt Q9NY61).
T1 sequence: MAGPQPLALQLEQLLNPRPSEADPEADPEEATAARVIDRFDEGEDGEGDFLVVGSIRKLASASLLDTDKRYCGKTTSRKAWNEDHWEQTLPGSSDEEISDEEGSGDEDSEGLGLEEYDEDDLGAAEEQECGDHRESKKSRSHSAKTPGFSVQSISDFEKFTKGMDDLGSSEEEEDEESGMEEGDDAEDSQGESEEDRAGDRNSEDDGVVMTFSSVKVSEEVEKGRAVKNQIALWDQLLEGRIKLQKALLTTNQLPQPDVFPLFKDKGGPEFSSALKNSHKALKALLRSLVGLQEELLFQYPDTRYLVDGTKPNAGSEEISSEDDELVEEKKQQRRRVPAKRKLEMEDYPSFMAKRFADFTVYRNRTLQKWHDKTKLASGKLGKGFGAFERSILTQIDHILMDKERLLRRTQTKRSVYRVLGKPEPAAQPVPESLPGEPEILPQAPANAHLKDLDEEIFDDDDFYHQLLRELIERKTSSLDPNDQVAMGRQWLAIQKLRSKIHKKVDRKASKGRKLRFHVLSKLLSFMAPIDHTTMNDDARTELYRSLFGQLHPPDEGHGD
Description: co-IP; AATF antibody on protein G Dynabeads, U-2 OS nuclear extract (SNEB buffer) prepared with 0.2 U/ml Benzonase, 2 h at 4°C; western analysis; IgG as negative control.

The target in assay [2] is T1, AATF (human (endogenous in U-2 OS)). Description: co-IP; AATF antibody on protein G Dynabeads, U-2 OS nuclear extract (SNEB buffer: 20 mM HEPES pH 7.5, 150 mM NaCl, 1% NP40, 0.5% deoxycholate, 0.1% SDS) prepared without Benzonase, 2 h at 4°C; western analysis; IgG as negative control.

B1: NOL10 (protein, UniProt Q9BSC4 1-688)
chain: MQVSSLNEVKIYSLSCGKSLPEWLSDRKKRALQKKDVDVRRRIELIQDFEMPTVCTTIKVSKDGQYILATGTYKPRVRCYDTYQLSLKFERCLDSEVVTFEILSDDYSKIVFLHNDRYIEFHSQSGFYYKTRIPKFGRDFSYHYPSCDLYFVGASSEVYRLNLEQGRYLNPLQTDAAENNVCDINSVHGLFATGTIEGRVECWDPRTRNRVGLLDCALNSVTADSEINSLPTISALKFNGALTMAVGTTTGQVLLYDLRSDKPLLVKDHQYGLPIKSVHFQDSLDLILSADSRIVKMWNKNSGKIFTSLEPEHDLNDVCLYPNSGMLLTANETPKMGIYYIPVLGPAPRWCSFLDNLTEELEENPESTVYDDYKFVTKKDLENLGLTHLIGSPFLRAYMHGFFMDIRLYHKVKLMVNPFAYEEYRKDKIRQKIEETRAQRVQLKKLPKVNKELALKLIEEEEEKQKSTWKKKVKSLPNILTDDRFKVMFENPDFQVDEESEEFRLLNPLVSKISEKRKKKLRLLEQQELREKEEEEEPEGKPSDAESSESSDDEKAWVEEVRKQRRLLQQEEKVKRQERLKEDQQTVLKPQFYEIKAGEEFRSFKDSATKQKLMNKTLEDRLKIEAKNGTLSVSDTTVGSKQLTFTLKRSEQQKKQQEAEKLHRQERKRLRRSAGHLKSRHKRGRSFH
Turning to B1, the binding entry in assay [1] and in assay [2] was “binds” each time.
